Measurements: patent US20070160526
The exact form of at least one protein or probe is not confirmed.

test system: MUC1 peptide (immobilised MUC1 selection target); experiment: SELEX; conditions: 10 rounds affinity column selection, wash 0.2 M NaHCO3 0.5 M NaCl pH 8.3, eluted 3 M NaSCN; single-stranded DNA

Selection result, selected:
GGGAGACAAGAATAAACGCTCAAGCAACAGGGTATCCAAAGGATCAAATTCGACAGGAGGCTCACAACAGGC [Aptamer 2], GGGAGACAAGAATAAACGCTCAATGTTGGTCAGGCGGCGGCTCTACATTTCGACAGGAGGCTCACAACAGGC [Aptamer 4], GGGAGACAAGAATAAACGCTCAACGAATGGGCCCGTCCTCGCTGTAAGTTCGACAGGAGGCTCACAACAGGC [Aptamer 1], GGGAGACAAGAATAAACGCTCAAGTTCGACAGGAGGCTCACAACAGGCTTCGACAGGAGGCTCACAACAGGC [Aptamer 3]

same assay, conditions: 10 rounds affinity column selection; found as clones A and C; single-stranded DNA

Selection result, selected:
GGGAGACAAGAATAAACGCTCAACCCTCTGTTCTTATTTGCGAGTTCATTCGACAGGAGGCTCACAACAGGC [Aptamer A (identical to C)]

same assay, conditions: 10 rounds affinity column selection; printed 5' primer region has an extra A; single-stranded DNA

Selection result, selected:
GGGAGACAAGAATAAAACGCTCAAGCAGTTGATCCTTTGGATACCCTGGTTCGACAGGAGGCTCACAACAGGC [Aptamer F]

same assay, conditions: 10 rounds affinity column selection; single-stranded DNA

Selection result, selected:
GGGAGACAAGAATAAACGCTCAACTCTGTTCTTATTTGCGAGTTGGTGTTCGACAGGAGGCTCACAACAGGC [Aptamer B], GGGAGACAAGAATAAACGCTCAATAAGAACAGGGCGTCGTGTTACGAGTTCGACAGGAGGCTCACAACAGGC [Aptamer D], GGGAGACAAGAATAAACGCTCAAGTGGCTTACTGCGAGGACGGGCCCATTCGACAGGAGGCTCACAACAGGC [Aptamer E], GGGAGACAAGAATAAACGCTCAAAACCCTATCCACTTTTCGGCTCGGGTTCGACAGGAGGCTCACAACAGGC [Aptamer G]

same assay, conditions: affinity column selection; flanks not given; single-stranded DNA

Selection result, selected:
CGACAGGAGGCTCACAACAGGCAAC [Aptamer K], AGAAACACTTGGTATATCGCAGATA [Aptamer H], GGGAGACAAGAATAAACACTCAACG [Aptamer I], AGAACGAAGCGTTCGACAGGAGGCT [Aptamer L], CGATTTAGTCTCTGTCTCTAGGGGT [Aptamer J]
